Some of the results follow.

For this assay, the target named is T1, OsSMF1 (Oryza sativa, UniProt Q6ZLB0 1-436).
T1 sequence: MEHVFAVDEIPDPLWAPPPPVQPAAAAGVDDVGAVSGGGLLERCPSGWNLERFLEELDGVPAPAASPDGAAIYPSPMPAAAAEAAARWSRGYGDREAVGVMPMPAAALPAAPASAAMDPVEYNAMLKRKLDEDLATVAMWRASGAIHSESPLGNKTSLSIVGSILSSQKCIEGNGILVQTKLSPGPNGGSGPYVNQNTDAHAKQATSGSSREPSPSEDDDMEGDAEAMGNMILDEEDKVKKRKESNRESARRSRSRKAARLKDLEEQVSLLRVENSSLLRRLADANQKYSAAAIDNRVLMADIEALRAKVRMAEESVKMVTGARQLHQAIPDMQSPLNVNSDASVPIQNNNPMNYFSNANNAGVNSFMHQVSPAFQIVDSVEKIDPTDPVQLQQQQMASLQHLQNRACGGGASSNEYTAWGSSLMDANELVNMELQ
The assay can be described thus: protein-binding microarray (RPBM); PBS, 2% BSA, 51.3 ng/ul salmon testes DNA, 50 uM zinc acetate, 200 nM TF, 25 C, 1 h; high values mean tight binding. As to conditions: protein: recombinant; tags: N-terminal polyhistidine and DsRed monomer fusion (pET32a); chain copies: 2; label: CyDye5-dUTP incorporated in the synthesized complementary strand; 3' TTTTT single-stranded linker to array surface; dsDNA, one strand shown. The gist of the method:
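A custom Agilent array was converted to double-stranded form by primer extension with Cy5-dUTP and blocked with 2% BSA. Protein at 200 nM in PBS with 2% BSA, salmon testes DNA and 50 µM zinc acetate was applied for 1 h at 25 °C, followed by washing. The proteins were polyhistidine–DsRed N-terminal fusions of transcription factors, expressed in E. coli BL21-CodonPlus and Ni–NTA-purified. The binding signal is per-feature fluorescence intensity (arbitrary units) from an Axon 4000B scanner.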
As to “TTATAACACAAAACACATATGAAGCGCACTCTACCACGCACGGAGTCACCTAGTGCAG”, the binding signal is 32200 fluorescence intensity (a.u.).
Under “TGTGATCACTTTTGCTTACATGGATGGTGAGAGTGCTCCCCGGAGTCACCTAGTGCAG” stands 3630 fluorescence intensity (a.u.); under “TGAACTCCTAATACTGTCCTACCACTTCTACATGTCTTCTCGGAGTCACCTAGTGCAG”, 28700 fluorescence intensity (a.u.).
Under “ATTTTGCGTGCGTGTAGGATTTGTTCCCAAACACCACATGCGGAGTCACCTAGTGCAG” stands 5820 fluorescence intensity (a.u.).
Under “CCGCCGCTCGCTCCCCACGGATGGCCGTAGGGGAGAAGGACGGAGTCACCTAGTGCAG” stands 36200 fluorescence intensity (a.u.); under “GTAATGGCCCTGTCTGACTCATTCACCAAACCCCTGAATTCGGAGTCACCTAGTGCAG”, 3190 fluorescence intensity (a.u.).
In the case of “TTCCCCAAGTTCACAACCTGTACGTGTGTGTGGTACGTAGCGGAGTCACCTAGTGCAG”, the binding signal was 4180 fluorescence intensity (a.u.).
Turning to “TATATATTATACCATTAATGACTGATCCTACCCTCTCATACGGAGTCACCTAGTGCAG”, the binding signal was 3290 fluorescence intensity (a.u.).
Under “AACCCTTCTTCCATATGATGTGGCTAATTTTGAAGATGTACGGAGTCACCTAGTGCAG” stands 8830 fluorescence intensity (a.u.).
Under “CTTATGTCGAGCAGGATATTGGACGTCTTGATGTCACGGTCGGAGTCACCTAGTGCAG” stands 3570 fluorescence intensity (a.u.).
Under “GAAGTTTGCCTTGTCGGCCGTCGTGTCCTTCTGCCGCTAACGGAGTCACCTAGTGCAG” stands 3980 fluorescence intensity (a.u.).
With “TTGTCGCAGGTTGCTGACTGTTCCTCGAGGGAGTTCTCGGCGGAGTCACCTAGTGCAG”, the binding signal was 6980 fluorescence intensity (a.u.).
For “TCCTCTGTCTCCTCCCTCATCCATCGAGCACCGAGCTCTGCGGAGTCACCTAGTGCAG”, the binding signal is 3640 fluorescence intensity (a.u.).
Consider “GCTTCAAGATTGGTGAGAATACAGGTGGCACGATGGTTCCCGGAGTCACCTAGTGCAG”, for which the binding signal is 3870 fluorescence intensity (a.u.).
Under “GTCGGGCGCCACCACCGCATCCTCCGCCATCCCCGCGCCGCGGAGTCACCTAGTGCAG” stands 3900 fluorescence intensity (a.u.).
Under “GTAGGTTGTGCATTGATAAGGGTGAGTGTGCACGTGAACGCGGAGTCACCTAGTGCAG” stands 4670 fluorescence intensity (a.u.).
Under “TCTGCTCTTCTGCTTCTTCTCTTCAGCCTCAAGATTTGTTCGGAGTCACCTAGTGCAG” stands 23600 fluorescence intensity (a.u.).
“TACCTCTTCAGTACAGCTGCAGCTGCTGACTGCTCACTACCGGAGTCACCTAGTGCAG”: the binding signal is 4340 fluorescence intensity (a.u.).
Under “ACGGCACCACCTCCATACGTCACCGGGAGGACCCAACTGCCGGAGTCACCTAGTGCAG” stands 5150 fluorescence intensity (a.u.); under “ACAAAACGTGGCGATTAACCAAACACCCCTTGATCCATGGCGGAGTCACCTAGTGCAG”, 3640 fluorescence intensity (a.u.).
Regarding “AGTCGCCTGACACCAGTCCATACGCATGTCACTGAAATTGCGGAGTCACCTAGTGCAG”, the binding signal was 4250 fluorescence intensity (a.u.).
Under “TTACTTTAAAATGTGAGGATGTAATTGGCAGCAGCTCAAACGGAGTCACCTAGTGCAG” stands 3710 fluorescence intensity (a.u.).
On to “CCAAATCCGGCGCGCTGTGTCACCAAATCGCCATATCTCACGGAGTCACCTAGTGCAG”, for which the binding signal is 4430 fluorescence intensity (a.u.).
Under “GGTGCCCTCGACGAGGAGGCCGATGCCGTTGATGGTGACGCGGAGTCACCTAGTGCAG” stands 5610 fluorescence intensity (a.u.).
Consider “CGGCCACGAACTCCGCCGCCGCCGCCTCCTCCCCGTCGCCCGGAGTCACCTAGTGCAG”, for which the binding signal was 5120 fluorescence intensity (a.u.).
Under “GTGGGTTGGTTGGGCCTGTTCAACGTGGTGTAGCGTTGATCGGAGTCACCTAGTGCAG” stands 3380 fluorescence intensity (a.u.); under “CTCCAGCGTCTGCTACAGTGACGCAATCATGCAATCATTTCGGAGTCACCTAGTGCAG”, 3840 fluorescence intensity (a.u.).
Under “AAATTCTTACTCGTGATGATGTGTACGAATCTCAAACATTCGGAGTCACCTAGTGCAG” stands 8680 fluorescence intensity (a.u.); under “CCTTTCCAGAGCGTCTCGGTCACGTAACAAGAACCTCACTCGGAGTCACCTAGTGCAG”, 3140 fluorescence intensity (a.u.).
Under “CAAACGTGTCAGATTACACGTGGCTCGGTCAACGAATGGCCGGAGTCACCTAGTGCAG” stands 14500 fluorescence intensity (a.u.).
Take “ATGCATATATACGTGTACGTACGTGCTGTTAGTGTTAGCTCGGAGTCACCTAGTGCAG”: the binding signal is 6860 fluorescence intensity (a.u.).
Regarding “TCTTCTATTGACGCCCGTGGTGACTTCATCGATCTAGAGACGGAGTCACCTAGTGCAG”, the binding signal was 4120 fluorescence intensity (a.u.).
Regarding “TAAAGACCTCACACACGTTGCAACGTACTACGAGCTTTTCCGGAGTCACCTAGTGCAG”, the binding signal was 3160 fluorescence intensity (a.u.).
Under “TCCCATCCTAGCCGTCGGTTCCAAATCTGACGGCATCAAGCGGAGTCACCTAGTGCAG” stands 3250 fluorescence intensity (a.u.).
Under “AGTCGCCTCCTCGCACCTACTACCCTACTAGGTCATGCCACGGAGTCACCTAGTGCAG” stands 3910 fluorescence intensity (a.u.); under “ACCTGGGCGGATACTACGTCACCCCGGAGCTCTGCAAGTCCGGAGTCACCTAGTGCAG”, 6570 fluorescence intensity (a.u.).
Under “CTAGAACCAGGTTTAGGAATAAAATTTGGGAGAGTATATTCGGAGTCACCTAGTGCAG” stands 3370 fluorescence intensity (a.u.).
Turning to “ATCTGTCTTTGTTTGAAATCAGATTGGTTCAAAACAAGCGCGGAGTCACCTAGTGCAG”, the binding signal is 21900 fluorescence intensity (a.u.).
As for “ATACAACTAAATTAAATGGTTGGACTCCTCATGTTGAAGACGGAGTCACCTAGTGCAG”, the binding signal was 3630 fluorescence intensity (a.u.).
Under “CAATTTTAAACGGACTGGGAGCTGTCCATGCTGACCCATGCGGAGTCACCTAGTGCAG” stands 3740 fluorescence intensity (a.u.).
Under “ATGGTGGTTGTGTCTTATATTTTGGAATGGAGGGACTTATCGGAGTCACCTAGTGCAG” stands 21300 fluorescence intensity (a.u.); under “TGCCGCTCTACCGTCTTCTCGTCTCACGCGACGTGTCGTACGGAGTCACCTAGTGCAG”, 3790 fluorescence intensity (a.u.).

(Values after publication PMC7819943, “Rice protein-binding microarrays: a tool to detect cis-acting elements near promoter regions in rice”.)
